{"sequences": {"note": "Protein sequences, listed by entry. Tags and fused reporters are not part of them. Residues count along the entry.", "UniProt Q9NSA1, residues 29-209": "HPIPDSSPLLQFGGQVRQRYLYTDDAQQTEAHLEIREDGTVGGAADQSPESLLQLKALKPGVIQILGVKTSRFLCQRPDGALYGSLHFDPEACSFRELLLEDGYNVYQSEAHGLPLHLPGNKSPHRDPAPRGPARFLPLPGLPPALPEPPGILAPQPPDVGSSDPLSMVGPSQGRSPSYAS"}, "source": "patent US20130315927A1", "about": "(Novartis, published 2013)", "binders": {"B1": {"name": "mouse monoclonal antibody MAB1 (antibody, V domains shown)", "VH": "QVTLKESGPGILQPSQTLSLTCSFSGFSLSTSGMGVGWIRQPSGEGLEWLADIWWDDNKYYNPSLKSRLTVSKDTSSNQVFLKITSVDTADTATYYCALITTEGGFAYWGQGTLVTVSA", "VL": "DIVLTQSPATLSVTPGDSVSLSCRASQSINNNLHWYQQKSHESPRLLIKFASRSISGIPSKFSGSGSGTDFTLSINSVETEDFGMYFCQQSNYWPLTFGAGTNLELI", "notes": "also called parent mouse monoclonal antibody; murine anti-human Pcsk9 IgG1-kappa monoclonal antibody"}}, "key": {"hFgfr4 hFc": {"biological_target": "T1, hFgfr4 hFc (human, UniProt P22455)", "T1 sequence (fusion chain, looked up)": "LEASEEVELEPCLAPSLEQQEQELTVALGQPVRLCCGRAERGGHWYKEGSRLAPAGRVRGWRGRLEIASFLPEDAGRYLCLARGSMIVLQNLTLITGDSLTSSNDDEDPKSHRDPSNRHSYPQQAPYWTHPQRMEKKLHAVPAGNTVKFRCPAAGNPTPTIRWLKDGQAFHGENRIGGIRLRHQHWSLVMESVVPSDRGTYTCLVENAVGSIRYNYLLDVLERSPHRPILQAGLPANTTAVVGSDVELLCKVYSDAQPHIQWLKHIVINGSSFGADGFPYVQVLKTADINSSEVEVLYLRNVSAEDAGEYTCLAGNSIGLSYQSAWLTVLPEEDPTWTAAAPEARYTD", "test": "specificity ELISA, antigen coated at 88 ng per well, absorbance 650 nm"}, "hFGF21 mFc (human)": {"biological_target": "hFGF21 mFc (human) (UniProt Q9NSA1)", "test": "specificity ELISA, antigen coated at 88 ng per well, absorbance 650 nm"}}, "note": "These are yes or no findings as the source states them, for the method shown.", "data": [{"binder": "B1", "values": [{"measurement": "binding", "setting": "hFgfr4 hFc", "value": "no binding (tested: 2 µg/mL (single concentration))"}, {"measurement": "binding", "setting": "hFGF21 mFc (human)", "value": "no binding (tested: 2 µg/mL (single concentration))"}]}]}
